The record followed here is patent publication EP3445348B1, “FLUORESCENT COMPOUNDS, PRODUCTION METHODS AND USES THEREOF” (Universidade de Aveiro, priority 2016, dated 2017).

This data set relates to HeLa cells. Nature of the data set: Confocal microscopy of uptake and subcellular distribution in HeLa cells, co-localization with Syntaxin-6 and DAPI. The class given is cell-based, human. The note with it: 1h, 1-2×10^-5 mol.L^-1, co-localization with Syntaxin-6 and DAPI.
From the text: […]

For `CN(C)c1ccc(/C=C2\CCC/C(=C\c3ccc(N(C)C)c(Cl)c3)C2=O)cc1Cl` [cyclic-Cl, (2E,6E)-2,6-bis[3-chloro-4-(dimethylamino)benzylidene]cyclohexanone], the subcellular localization result was “initially localize more abundantly at the Golgi region and further on also at the nucleus”.

Take `CN(C)c1ccc(/C=C/C(=O)/C=C/c2ccc(N(C)C)cc2)cc1` [linear-H, (1E,4E)-1,5-bis[4-(dimethylamino)phenyl]penta-1,4-dien-3-one]: the subcellular localization result is “initially localize more abundantly at the Golgi region and further on also at the nucleus”.
